Measurements taken from the supplement of paper PMC10849652.
Some of the results follow.

Sequences of proteins named here, by UniProt entry; tags and fusion partners are left off. A change or cut given only in a name is not applied to a line headed by its entry.
UniProt Q9UBB9: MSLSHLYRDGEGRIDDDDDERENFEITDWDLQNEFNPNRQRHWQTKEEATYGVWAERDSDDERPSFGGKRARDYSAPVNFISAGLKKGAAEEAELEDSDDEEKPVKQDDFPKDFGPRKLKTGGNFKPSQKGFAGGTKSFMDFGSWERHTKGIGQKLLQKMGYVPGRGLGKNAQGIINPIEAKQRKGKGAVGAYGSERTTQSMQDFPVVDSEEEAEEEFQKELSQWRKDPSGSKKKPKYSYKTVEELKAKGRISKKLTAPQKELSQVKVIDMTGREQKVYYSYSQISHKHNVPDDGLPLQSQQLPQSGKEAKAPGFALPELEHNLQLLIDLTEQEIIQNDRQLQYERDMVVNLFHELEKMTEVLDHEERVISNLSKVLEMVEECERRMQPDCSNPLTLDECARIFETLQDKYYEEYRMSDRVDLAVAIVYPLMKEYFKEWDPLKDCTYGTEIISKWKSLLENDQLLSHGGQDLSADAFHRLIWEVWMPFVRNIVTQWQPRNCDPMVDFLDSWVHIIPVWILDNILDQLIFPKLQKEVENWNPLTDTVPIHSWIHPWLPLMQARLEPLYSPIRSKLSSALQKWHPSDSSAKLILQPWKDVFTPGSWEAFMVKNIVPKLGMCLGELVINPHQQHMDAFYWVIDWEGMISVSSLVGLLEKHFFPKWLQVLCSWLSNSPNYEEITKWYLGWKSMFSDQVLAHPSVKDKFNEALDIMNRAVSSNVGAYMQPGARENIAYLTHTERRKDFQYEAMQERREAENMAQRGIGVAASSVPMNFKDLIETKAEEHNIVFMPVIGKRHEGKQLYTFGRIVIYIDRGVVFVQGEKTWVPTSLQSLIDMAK
UniProt Q16594, whole entry, looked up: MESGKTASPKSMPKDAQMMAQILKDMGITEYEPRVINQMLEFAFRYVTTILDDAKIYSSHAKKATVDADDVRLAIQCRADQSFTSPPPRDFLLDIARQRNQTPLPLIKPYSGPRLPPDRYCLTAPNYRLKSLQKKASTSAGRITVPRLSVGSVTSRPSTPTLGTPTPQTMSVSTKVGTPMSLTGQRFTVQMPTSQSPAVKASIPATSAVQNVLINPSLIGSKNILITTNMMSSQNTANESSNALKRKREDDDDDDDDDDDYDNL
UniProt O60343: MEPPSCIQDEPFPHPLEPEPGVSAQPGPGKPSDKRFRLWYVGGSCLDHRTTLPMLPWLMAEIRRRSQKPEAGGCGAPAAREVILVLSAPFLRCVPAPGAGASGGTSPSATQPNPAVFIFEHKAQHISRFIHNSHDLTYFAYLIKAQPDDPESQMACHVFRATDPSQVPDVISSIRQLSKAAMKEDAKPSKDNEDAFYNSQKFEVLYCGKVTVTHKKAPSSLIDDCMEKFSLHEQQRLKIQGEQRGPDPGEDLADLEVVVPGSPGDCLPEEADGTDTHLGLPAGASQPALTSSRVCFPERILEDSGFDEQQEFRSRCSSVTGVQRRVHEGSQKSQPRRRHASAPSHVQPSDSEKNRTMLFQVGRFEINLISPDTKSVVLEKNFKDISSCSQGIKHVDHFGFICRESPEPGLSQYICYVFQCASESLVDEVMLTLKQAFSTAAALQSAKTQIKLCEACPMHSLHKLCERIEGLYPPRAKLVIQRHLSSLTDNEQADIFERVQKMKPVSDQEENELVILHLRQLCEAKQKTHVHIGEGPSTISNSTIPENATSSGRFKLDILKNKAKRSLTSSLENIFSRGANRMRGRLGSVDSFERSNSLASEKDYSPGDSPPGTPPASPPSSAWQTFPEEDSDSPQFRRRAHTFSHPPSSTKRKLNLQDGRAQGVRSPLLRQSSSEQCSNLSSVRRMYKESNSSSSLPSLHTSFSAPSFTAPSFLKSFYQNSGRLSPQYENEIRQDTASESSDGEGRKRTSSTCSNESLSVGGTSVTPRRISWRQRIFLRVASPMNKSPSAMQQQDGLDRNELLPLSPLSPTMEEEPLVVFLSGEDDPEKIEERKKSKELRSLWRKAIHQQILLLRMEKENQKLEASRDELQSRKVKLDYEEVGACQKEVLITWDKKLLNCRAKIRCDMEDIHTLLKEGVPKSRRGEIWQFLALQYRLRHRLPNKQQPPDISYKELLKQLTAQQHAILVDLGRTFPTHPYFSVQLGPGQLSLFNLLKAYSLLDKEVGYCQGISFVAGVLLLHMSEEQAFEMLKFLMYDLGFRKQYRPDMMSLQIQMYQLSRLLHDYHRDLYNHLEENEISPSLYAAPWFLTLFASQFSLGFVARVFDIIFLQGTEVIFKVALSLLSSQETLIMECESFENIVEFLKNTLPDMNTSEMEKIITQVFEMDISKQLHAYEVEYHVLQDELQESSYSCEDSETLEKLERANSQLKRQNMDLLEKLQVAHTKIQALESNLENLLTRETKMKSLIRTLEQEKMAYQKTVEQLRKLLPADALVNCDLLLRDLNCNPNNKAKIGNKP
UniProt P26639: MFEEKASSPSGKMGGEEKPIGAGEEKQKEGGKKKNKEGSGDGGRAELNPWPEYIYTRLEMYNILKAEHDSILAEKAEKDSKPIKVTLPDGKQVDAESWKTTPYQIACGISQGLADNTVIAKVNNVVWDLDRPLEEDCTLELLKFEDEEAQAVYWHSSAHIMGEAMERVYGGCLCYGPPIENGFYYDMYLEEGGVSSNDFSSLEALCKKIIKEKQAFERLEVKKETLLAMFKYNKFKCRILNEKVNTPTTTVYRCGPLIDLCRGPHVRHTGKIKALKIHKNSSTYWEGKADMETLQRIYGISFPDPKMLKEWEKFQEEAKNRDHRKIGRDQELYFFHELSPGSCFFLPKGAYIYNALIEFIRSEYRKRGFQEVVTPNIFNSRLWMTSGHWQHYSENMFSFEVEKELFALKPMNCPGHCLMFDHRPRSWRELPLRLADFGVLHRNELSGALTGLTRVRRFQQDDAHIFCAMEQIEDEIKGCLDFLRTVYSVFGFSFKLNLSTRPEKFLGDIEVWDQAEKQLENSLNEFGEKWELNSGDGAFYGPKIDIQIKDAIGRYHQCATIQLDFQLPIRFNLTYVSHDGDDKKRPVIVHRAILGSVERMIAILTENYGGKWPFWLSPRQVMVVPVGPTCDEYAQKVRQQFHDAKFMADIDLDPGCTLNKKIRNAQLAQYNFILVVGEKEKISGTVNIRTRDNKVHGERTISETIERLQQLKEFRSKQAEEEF
UniProt Q9H2K8: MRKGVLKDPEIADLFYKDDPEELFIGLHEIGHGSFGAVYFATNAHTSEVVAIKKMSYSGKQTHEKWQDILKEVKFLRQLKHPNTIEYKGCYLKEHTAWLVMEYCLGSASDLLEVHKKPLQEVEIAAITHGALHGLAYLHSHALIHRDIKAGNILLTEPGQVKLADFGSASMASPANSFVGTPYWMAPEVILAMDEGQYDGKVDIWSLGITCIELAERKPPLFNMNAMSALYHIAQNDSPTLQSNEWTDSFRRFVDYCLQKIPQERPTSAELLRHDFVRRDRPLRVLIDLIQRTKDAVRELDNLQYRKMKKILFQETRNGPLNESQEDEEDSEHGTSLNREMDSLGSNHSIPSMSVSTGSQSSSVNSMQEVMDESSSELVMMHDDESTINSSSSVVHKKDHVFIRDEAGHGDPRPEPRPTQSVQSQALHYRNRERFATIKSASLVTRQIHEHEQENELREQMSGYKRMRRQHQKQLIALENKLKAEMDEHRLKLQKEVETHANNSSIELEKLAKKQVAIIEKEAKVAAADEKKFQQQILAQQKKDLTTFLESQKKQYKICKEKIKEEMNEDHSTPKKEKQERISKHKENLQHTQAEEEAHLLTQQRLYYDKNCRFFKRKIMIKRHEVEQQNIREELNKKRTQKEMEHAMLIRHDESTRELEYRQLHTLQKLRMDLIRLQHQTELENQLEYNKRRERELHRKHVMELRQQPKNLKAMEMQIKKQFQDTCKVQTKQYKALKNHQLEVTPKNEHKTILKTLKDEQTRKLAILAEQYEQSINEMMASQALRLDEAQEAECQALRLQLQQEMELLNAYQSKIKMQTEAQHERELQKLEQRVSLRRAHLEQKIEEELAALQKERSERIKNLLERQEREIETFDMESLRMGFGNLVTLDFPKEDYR
UniProt P19532: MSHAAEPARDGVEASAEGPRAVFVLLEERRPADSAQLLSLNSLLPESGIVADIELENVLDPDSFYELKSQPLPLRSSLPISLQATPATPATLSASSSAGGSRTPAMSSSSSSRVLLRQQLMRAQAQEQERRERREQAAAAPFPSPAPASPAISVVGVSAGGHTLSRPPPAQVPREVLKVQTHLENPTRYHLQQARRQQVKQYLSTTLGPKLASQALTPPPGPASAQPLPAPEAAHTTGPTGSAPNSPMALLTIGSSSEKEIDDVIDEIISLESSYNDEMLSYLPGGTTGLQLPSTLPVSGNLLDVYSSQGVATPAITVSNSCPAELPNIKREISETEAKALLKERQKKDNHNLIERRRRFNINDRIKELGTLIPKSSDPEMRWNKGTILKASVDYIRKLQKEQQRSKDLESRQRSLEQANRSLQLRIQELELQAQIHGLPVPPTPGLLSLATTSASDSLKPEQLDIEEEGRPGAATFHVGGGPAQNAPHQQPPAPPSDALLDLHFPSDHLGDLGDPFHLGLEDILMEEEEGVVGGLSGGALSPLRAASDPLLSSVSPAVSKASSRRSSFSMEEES
UniProt Q99081: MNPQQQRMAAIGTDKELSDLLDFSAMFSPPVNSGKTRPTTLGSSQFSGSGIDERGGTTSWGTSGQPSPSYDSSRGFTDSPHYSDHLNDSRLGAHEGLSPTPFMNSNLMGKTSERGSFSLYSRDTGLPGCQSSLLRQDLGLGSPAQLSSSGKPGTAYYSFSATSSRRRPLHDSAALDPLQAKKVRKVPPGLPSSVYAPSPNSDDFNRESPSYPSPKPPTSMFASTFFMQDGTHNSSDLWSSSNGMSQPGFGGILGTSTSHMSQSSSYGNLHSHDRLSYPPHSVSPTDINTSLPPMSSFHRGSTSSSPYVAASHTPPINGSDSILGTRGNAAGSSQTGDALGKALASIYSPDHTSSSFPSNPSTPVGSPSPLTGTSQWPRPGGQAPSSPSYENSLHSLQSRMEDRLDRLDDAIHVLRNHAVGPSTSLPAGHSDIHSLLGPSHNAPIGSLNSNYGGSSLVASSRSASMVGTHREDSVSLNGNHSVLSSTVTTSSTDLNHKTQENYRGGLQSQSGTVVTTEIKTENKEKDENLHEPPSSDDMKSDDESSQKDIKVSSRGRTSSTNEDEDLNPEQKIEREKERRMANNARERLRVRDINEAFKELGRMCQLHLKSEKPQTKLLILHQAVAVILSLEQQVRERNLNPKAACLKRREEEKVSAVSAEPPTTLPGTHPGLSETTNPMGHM
UniProt Q9Y4P3: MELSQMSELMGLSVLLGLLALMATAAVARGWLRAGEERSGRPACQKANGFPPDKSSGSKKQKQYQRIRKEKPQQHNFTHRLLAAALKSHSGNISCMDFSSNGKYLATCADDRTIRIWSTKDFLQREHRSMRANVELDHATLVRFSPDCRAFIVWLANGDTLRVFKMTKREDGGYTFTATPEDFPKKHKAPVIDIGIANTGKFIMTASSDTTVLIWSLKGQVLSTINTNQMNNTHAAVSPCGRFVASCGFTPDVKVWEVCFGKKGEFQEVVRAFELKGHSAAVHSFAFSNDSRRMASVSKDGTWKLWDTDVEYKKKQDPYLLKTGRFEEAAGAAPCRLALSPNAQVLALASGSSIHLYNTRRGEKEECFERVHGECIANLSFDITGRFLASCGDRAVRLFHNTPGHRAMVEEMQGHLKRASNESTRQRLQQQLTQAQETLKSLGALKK
UniProt Q15814: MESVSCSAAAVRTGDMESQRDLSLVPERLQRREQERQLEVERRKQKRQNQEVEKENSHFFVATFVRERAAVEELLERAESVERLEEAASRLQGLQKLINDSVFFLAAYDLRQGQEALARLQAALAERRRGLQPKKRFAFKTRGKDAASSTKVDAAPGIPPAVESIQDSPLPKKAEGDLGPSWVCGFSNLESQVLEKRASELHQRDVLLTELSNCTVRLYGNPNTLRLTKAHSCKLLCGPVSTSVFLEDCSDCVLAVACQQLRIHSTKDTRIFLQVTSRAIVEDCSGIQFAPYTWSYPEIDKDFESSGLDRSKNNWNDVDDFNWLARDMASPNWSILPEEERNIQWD
UniProt P37837: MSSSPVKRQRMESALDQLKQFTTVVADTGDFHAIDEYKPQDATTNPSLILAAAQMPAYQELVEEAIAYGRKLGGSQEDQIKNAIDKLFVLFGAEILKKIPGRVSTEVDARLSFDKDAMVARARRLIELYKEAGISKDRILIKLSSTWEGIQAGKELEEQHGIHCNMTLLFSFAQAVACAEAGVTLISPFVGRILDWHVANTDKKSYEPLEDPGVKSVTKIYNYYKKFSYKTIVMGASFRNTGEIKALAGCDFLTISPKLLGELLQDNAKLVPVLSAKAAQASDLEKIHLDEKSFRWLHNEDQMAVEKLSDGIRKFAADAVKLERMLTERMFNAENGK

How the values were obtained:
Assay in all cases: log2 fold change, soluble protein after heating vs DMSO (PISA); higher = thermal stabilisation; K562 lysate, 10 uM; active = over 0.2 and 3.5 SD of the protein, either way, in both replicates (recomputed)
[1] = compound: C=CC(=O)N1CCC[C@@H](n2nc(-c3ccc(Oc4ccccc4)cc3)c3c(N)ncnc32)C1 [ibrutinib]
In short: (§1)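 Following dounce homogenisation of K562 pellets in PBS pH 7.4 with 1 mM MgCl2, crude extract at 1 mg/mL protein was incubated for 30 min with 10 μM compound. Aliquots were then heated for 3 min over 48°C-58°C and pooled, NP-40 was added to 0.5% at 4°C, and soluble protein was recovered as the supernatant at 21,000xg for 90 min. Channel-sum-equalised TMTpro 16plex LC-MS/MS quantified this protein. Each value, from duplicates, is a log-two fold change in thermal stability relative to solvent controls.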

[2] = compound: CC(=O)c1cnc2ccc(-c3cc(Cl)c(O)c(Cl)c3)nc2c1N[C@H]1CC[C@H](CN(C)C)CC1
In short: as §1

[3] = compound: CC(C)(C)Cn1c(N)nc2ccc(-c3[nH]c(C(C)(C)C)nc3-c3ccc(F)cc3)nc21 [ralimetinib]
In short: as §1

[4] = compound: CC(C)(O)CC(=O)NCCn1ccc2ncnc(Nc3ccc(Oc4cccc(C(F)(F)F)c4)c(Cl)c3)c21
In short: as §1

[5] = compound: CC(C)C1=C2N=C(C=C(N2N=C1)NCC3=CC=CC=C3)NCCCCCCN
In short: as §1

[6] = compound: CC1=C(C(CC(=O)N1)C2=CC=C(C=C2)C(F)(F)F)C(=O)NC3=C(C=C4C(=C3)C=NN4)F
In short: as §1

[7] = compound: CC1=C(C2=C(C=C1)C(=O)C3=CC=CC=C3N2CCCN)C
In short: as §1

[8] = compound: CC1=C(C=C(C=C1)NC(=O)C2=CC(=CC=C2)C(C)(C)C#N)NC3=CC4=C(C=C3)N=CN(C4=O)C
In short: as §1

[9] = compound: CC1=C(C=C(C=C1)NC(=O)C2=CC(=CC=C2)N(C)C)NC(=O)C3=CC=C(C=C3)O
In short: as §1

[10] = compound: CC1=CC=C(C=C1)SC2=C3C=C(SC3=CN=C2)C(=O)N
In short: as §1

[11] = compound: CCCS(=O)(=O)Nc1ccc(F)c(C(=O)c2c[nH]c3ncc(-c4ccc(Cl)cc4)cc23)c1F [vemurafenib]
In short: as §1

[12] = compound: CCCS(=O)(=O)Nc1ccc(F)c(C(=O)c2c[nH]c3ncc(Cl)cc23)c1F
In short: as §1

[13] = compound: CCN(CCCOc1ccc2c(Nc3cc(CC(=O)Nc4cccc(F)c4)[nH]n3)ncnc2c1)CCOP(=O)(O)O [barasertib]
In short: as §1

[14] = compound: CC[C@@H]1C(=O)N(C)c2cnc(Nc3ccc(C(=O)NC4CCN(C)CC4)cc3OC)nc2N1C1CCCC1
In short: as §1

[15] = compound: CC[C@@H]1C(=O)N(C)c2cnc(Nc3ccc(C(=O)N[C@H]4CC[C@H](N5CCN(CC6CC6)CC5)CC4)cc3OC)nc2N1C(C)C [volasertib]
In short: as §1

[16] = compound: CCn1c(C(=O)N(C2CC2)C2CC2)cc2c3c(ncn3C)c(Nc3cc(C)n(C)n3)nc21
In short: as §1

[17] = compound: CCn1cc(-c2ccnc3[nH]c(-c4cccc(CN(C)C)c4)cc23)c(-c2ccc(NC(=O)N(C)C)cc2)n1
In short: as §1

[18] = compound: CN1CCC(CNc2ccc3ncc(-c4cccc(OC(F)(F)F)c4)n3n2)CC1
In short: as §1

[19] = compound: CN1CCN(CCOc2cc(OC3CCOCC3)c3c(Nc4c(Cl)ccc5c4OCO5)ncnc3c2)CC1 [saracatinib]
In short: as §1

[20] = compound: CN1CCN(c2nc(C3=C(c4c[nH]c5ccccc45)C(=O)NC3=O)c3ccccc3n2)CC1 [sotrastaurin]
In short: as §1

Measured: log2 fold change

TFIP11 (UniProt Q9UBB9)
inactive: [1] 0.059 | [2] 0.001 | [3] 0.023 | [4] 0.008 | [5] -0.022 | [6] 0 | [7] -0.034 | [8] 0.016 | [9] 0.031 | [10] -0.003 | [11] 0.017 | [12] 0.025 | [13] -0.09 | [14] -0.018 | [15] -0.059 | [16] 0.048 | [17] -0.027 | [18] -0.037 | [19] 0.018 | [20] 0.027

TATDN2 (UniProt Q93075)
inactive: [1] 0.008 | [2] -0.114 | [3] -0.03 | [4] -0.045 | [5] -0.092 | [6] 0.018 | [7] -0.003 | [8] -0.008 | [9] 0.032 | [10] 0.019 | [11] -0.065 | [12] -0.019 | [13] 0.074 | [14] 0.021 | [15] 0.069 | [16] 0.065 | [17] -0.054 | [18] 0.042 | [19] -0.043 | [20] 0.053

TAF9 (UniProt Q16594)
active: [17] 0.238
inactive: [1] -0.028 | [2] 0.044 | [3] 0.033 | [4] -0.057 | [5] 0.032 | [6] 0.015 | [7] 0.019 | [8] 0.027 | [9] 0.101 | [10] -0.023 | [11] -0.028 | [12] -0.092 | [13] -0.001 | [14] -0.031 | [15] 0.063 | [16] 0.002 | [18] -0.006 | [19] 0.056 | [20] -0.001

TBC1D4 (UniProt O60343)
inactive: [1] 0.03 | [2] 0.014 | [3] 0.021 | [4] 0.005 | [5] -0.036 | [6] 0.009 | [7] 0 | [8] -0.051 | [9] -0.006 | [10] 0.008 | [11] -0.034 | [12] 0.014 | [13] 0.009 | [14] 0.002 | [15] -0.019 | [16] 0.042 | [17] -0.089 | [18] 0.054 | [19] 0.008 | [20] 0.027

TBC1D7 (UniProt Q9P0N9)
inactive: [1] -0.022 | [2] 0.047 | [3] 0.01 | [4] -0.135 | [5] -0.038 | [6] -0.038 | [7] -0.047 | [8] 0.065 | [9] 0.068 | [10] 0.067 | [11] -0.002 | [12] -0.047 | [13] 0.048 | [14] 0.013 | [15] -0.017 | [16] -0.046 | [17] -0.215 | [18] 0.11 | [19] 0.032 | [20] 0.034

TARS1 (UniProt P26639)
inactive: [1] 0.002 | [2] -0.011 | [3] 0.007 | [4] 0.033 | [5] -0.011 | [6] -0.007 | [7] 0.007 | [8] -0.015 | [9] -0.016 | [10] 0.01 | [11] -0.006 | [12] 0.015 | [13] -0.015 | [14] -0.022 | [15] -0.005 | [16] -0.002 | [17] -0.043 | [18] 0.015 | [19] -0.043 | [20] -0.009

TAOK3 (UniProt Q9H2K8)
inactive: [1] 0.018 | [2] 0.094 | [3] 0.014 | [4] -0.025 | [5] -0.002 | [6] -0.038 | [7] -0.016 | [8] -0.024 | [9] -0.025 | [10] 0.016 | [11] -0.021 | [12] -0.039 | [13] 0 | [14] 0.035 | [15] -0.042 | [16] 0.029 | [17] 0.093 | [18] -0.113 | [19] 0.001 | [20] 0.031

TFE3 (UniProt P19532)
inactive: [1] 0.066 | [2] -0.074 | [3] 0.07 | [4] -0.022 | [5] 0.047 | [6] 0.013 | [7] 0.064 | [8] -0.111 | [9] -0.009 | [10] -0.047 | [11] -0.106 | [12] 0.012 | [13] -0.037 | [14] 0.005 | [15] 0.057 | [16] -0.082 | [17] -0.003 | [18] 0.067 | [19] 0.04 | [20] -0.076

TBC1D10B (UniProt Q4KMP7)
inactive: [1] -0.011 | [2] -0.025 | [3] 0.004 | [4] -0.014 | [5] -0.043 | [6] 0.003 | [7] 0.011 | [8] -0.001 | [9] 0.029 | [10] -0.051 | [11] 0.001 | [12] -0.008 | [13] -0.033 | [14] 0.066 | [15] -0.015 | [16] -0.014 | [17] 0.003 | [18] -0.012 | [19] -0.011 | [20] -0.002

TCF12 isoform 3 (UniProt Q99081)
inactive: [1] 0.059 | [2] -0.029 | [3] -0.022 | [4] -0.054 | [5] 0.002 | [6] -0.008 | [7] 0.064 | [8] -0.008 | [9] 0.011 | [10] 0.109 | [11] 0.008 | [12] -0.068 | [13] -0.037 | [14] 0.034 | [15] -0.094 | [16] 0.017 | [17] -0.04 | [18] 0.079 | [19] 0.043 | [20] -0.054

Random excerpt: 2 records from the list.
TAOK3 (UniProt Q9H2K8)
inactive: [1] 0.018 | [2] 0.094 | [3] 0.014 | [4] -0.025 | [5] -0.002 | [6] -0.038 | [7] -0.016 | [8] -0.024 | [9] -0.025 | [10] 0.016 | [11] -0.021 | [12] -0.039 | [13] 0 | [14] 0.035 | [15] -0.042 | [16] 0.029 | [17] 0.093 | [18] -0.113 | [19] 0.001 | [20] 0.031

TFE3 (UniProt P19532)
inactive: [1] 0.066 | [2] -0.074 | [3] 0.07 | [4] -0.022 | [5] 0.047 | [6] 0.013 | [7] 0.064 | [8] -0.111 | [9] -0.009 | [10] -0.047 | [11] -0.106 | [12] 0.012 | [13] -0.037 | [14] 0.005 | [15] 0.057 | [16] -0.082 | [17] -0.003 | [18] 0.067 | [19] 0.04 | [20] -0.076

The listing continues:

TBL2 (UniProt Q9Y4P3)
inactive: [1] 0.014 | [2] 0.059 | [3] 0.005 | [4] -0.001 | [5] 0 | [6] 0.045 | [7] 0.031 | [8] -0.008 | [9] 0.03 | [10] 0.05 | [11] -0.016 | [12] -0.013 | [13] -0.015 | [14] -0.029 | [15] -0.034 | [16] -0.045 | [17] -0.029 | [18] 0.022 | [19] 0.027 | [20] 0.001

TBC1D22B (UniProt Q9NU19)
inactive: [1] -0.006 | [2] 0.096 | [3] -0.014 | [4] -0.009 | [5] -0.067 | [6] 0.025 | [7] -0.062 | [8] 0.015 | [9] 0.047 | [10] -0.021 | [11] -0.066 | [12] -0.01 | [13] 0.029 | [14] 0.052 | [15] -0.025 | [16] -0.069 | [17] -0.027 | [18] -0.04 | [19] 0.061 | [20] 0.007

TAF6L (UniProt Q9Y6J9)
active: [14] -0.245
inactive: [1] 0.072 | [2] 0.046 | [3] 0.042 | [4] -0.078 | [5] 0.01 | [6] -0.041 | [7] -0.006 | [8] -0.027 | [9] 0.027 | [10] -0.009 | [11] -0.029 | [12] 0.035 | [13] -0.05 | [15] -0.007 | [16] -0.015 | [17] 0.018 | [18] 0.022 | [19] 0.029 | [20] 0.05

TBCC (UniProt Q15814)
inactive: [1] 0.003 | [2] 0.012 | [3] 0.002 | [4] -0.061 | [5] -0.009 | [6] -0.048 | [7] -0.029 | [8] -0.008 | [9] 0.008 | [10] -0.008 | [11] -0.021 | [12] 0.013 | [13] 0.023 | [14] -0.017 | [15] -0.027 | [16] -0.021 | [17] -0.005 | [18] 0.026 | [19] 0 | [20] 0.024

TBC1D13 (UniProt Q9NVG8)
inactive: [1] 0.012 | [2] -0.007 | [3] 0.045 | [4] -0.024 | [5] -0.005 | [6] -0.014 | [7] -0.029 | [8] 0.011 | [9] 0 | [10] -0.003 | [11] -0.016 | [12] -0.003 | [13] 0.052 | [14] 0.04 | [15] 0.013 | [16] 0.011 | [17] -0.071 | [18] 0.024 | [19] 0.017 | [20] -0.004

TALDO1 (UniProt P37837)
inactive: [1] -0.009 | [2] 0.019 | [3] -0.011 | [4] 0.038 | [5] -0.006 | [6] -0.036 | [7] 0.021 | [8] -0.055 | [9] -0.012 | [10] 0.024 | [11] -0.023 | [12] -0.031 | [13] -0.019 | [14] -0.06 | [15] -0.002 | [16] 0.015 | [17] 0.043 | [18] -0.093 | [19] -0.005 | [20] 0.003
